This passage reports binding results from publication PMC8376253.

Results are given in words; binding and its absence hold for the method and conditions named. For some of these results: In cells and extracts the contact can be indirect. Some entries that bind do so weakly or less than the wild type. Where a sequence is shown, tags or fusion partners need not be part of it.

The target in assay [1] is T1, V5-tagged mouse Naa15 (pcDNA3.1/V5-His-mNaa15) (mouse) (UniProt Q80UM3).
T1 sequence: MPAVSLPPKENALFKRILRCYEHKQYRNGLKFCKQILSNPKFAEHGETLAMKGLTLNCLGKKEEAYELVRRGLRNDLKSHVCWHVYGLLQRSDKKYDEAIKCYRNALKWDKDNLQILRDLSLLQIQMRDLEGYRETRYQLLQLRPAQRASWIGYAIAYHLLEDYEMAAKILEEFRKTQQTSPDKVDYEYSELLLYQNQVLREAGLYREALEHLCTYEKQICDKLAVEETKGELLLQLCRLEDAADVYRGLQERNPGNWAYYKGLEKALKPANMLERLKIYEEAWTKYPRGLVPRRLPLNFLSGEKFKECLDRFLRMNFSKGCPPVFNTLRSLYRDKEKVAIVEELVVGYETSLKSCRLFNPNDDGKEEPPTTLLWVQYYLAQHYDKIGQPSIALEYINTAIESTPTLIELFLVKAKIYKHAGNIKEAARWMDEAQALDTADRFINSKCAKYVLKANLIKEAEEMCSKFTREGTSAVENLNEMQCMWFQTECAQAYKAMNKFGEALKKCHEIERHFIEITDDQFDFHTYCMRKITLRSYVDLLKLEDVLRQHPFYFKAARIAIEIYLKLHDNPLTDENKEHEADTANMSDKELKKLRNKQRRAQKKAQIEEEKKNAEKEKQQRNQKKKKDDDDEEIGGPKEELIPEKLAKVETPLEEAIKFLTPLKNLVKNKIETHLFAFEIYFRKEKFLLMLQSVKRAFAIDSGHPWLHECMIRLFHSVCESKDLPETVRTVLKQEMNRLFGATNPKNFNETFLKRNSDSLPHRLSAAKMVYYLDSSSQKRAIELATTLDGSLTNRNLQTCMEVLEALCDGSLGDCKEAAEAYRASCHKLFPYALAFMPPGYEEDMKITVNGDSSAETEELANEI
The assay can be described thus: co-IP; HEK293 cells co-transfected with V5-His-mNaa15 and a 3xFLAG-tagged catalytic subunit, lysed after 48 hr in PBS-X; 1 µg anti-V5 antibody, 1 hr at 4°C, protein-A Sepharose; western blot. On the technique in general: In western blotting, separated proteins are transferred to a membrane and probed.

Assay [2] deals with T2, full-length human Naa15, N-terminally 6xHis-tagged (human) (UniProt Q9BXJ9).
T2 sequence: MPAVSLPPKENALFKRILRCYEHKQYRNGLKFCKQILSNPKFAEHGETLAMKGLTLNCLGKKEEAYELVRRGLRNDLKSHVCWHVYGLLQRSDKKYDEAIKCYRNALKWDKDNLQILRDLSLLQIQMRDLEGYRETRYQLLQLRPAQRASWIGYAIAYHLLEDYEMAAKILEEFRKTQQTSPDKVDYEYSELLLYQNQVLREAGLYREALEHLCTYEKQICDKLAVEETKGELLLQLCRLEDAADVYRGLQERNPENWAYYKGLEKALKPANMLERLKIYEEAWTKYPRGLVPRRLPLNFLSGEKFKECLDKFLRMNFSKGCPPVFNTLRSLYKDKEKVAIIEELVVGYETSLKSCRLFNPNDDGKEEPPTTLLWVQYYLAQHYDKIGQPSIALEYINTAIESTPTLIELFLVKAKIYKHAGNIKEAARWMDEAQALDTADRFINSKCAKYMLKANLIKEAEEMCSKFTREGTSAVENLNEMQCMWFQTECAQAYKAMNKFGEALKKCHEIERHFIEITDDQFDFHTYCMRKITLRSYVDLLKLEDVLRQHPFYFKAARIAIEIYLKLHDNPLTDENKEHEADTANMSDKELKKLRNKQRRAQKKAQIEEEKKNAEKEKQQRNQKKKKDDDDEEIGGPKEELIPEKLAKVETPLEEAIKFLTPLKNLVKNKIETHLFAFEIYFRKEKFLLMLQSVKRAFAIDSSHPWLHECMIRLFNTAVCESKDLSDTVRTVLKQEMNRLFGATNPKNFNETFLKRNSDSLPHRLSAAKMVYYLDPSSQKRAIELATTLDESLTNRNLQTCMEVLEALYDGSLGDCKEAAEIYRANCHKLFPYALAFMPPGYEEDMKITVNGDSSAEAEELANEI
The assay can be described thus: SEC; mNaa12 (1-160) and 6xHis-hNaa15 co-expressed in Sf9; complex purified by nickel resin, SP ion exchange and Superdex 200 size exclusion (25 mM HEPES pH 7.0, 200 mM NaCl, 1 mM TCEP, 4°C); fractions on silver-stained SDS-PAGE; both purified.

B1: 3xFLAG-tagged mouse Naa10 isoform 1 (p3xFLAG-CMV10-Naa10^235) (protein, UniProt Q9QY36 1-235)
chain: MNIRNARPEDLMNMQHCNLLCLPENYQMKYYFYHGLSWPQLSYIAEDENGKIVGYVLAKMEEDPDDVPHGHITSLAVKRSHRRLGLAQKLMDQASRAMIENFNAKYVSLHVRKSNRAALHLYSNTLNFQISEVEPKYYADGEDAYAMKRDLTQMADELRRHLELKEKGKHMVLAALENKAENKGNVLLSSGEACREEKGLAAEDSGGDSKDLSEVSETTESTDVKDSSEASDSAS
On to B1, for which the binding result in assay [1] is “binds”.

B2: truncated mouse Naa12 (residues 1-160) (domain or fragment, UniProt Q9CQX6 1-160)
chain: MNIRRARPDDLMNMQHCNLLCLPENYQMKYYFYHGLSWPQLSYIAEDEDGKIVGYVLAKMEEDPDDVPHGHITSLAVKRSHRRLGLAQKLMDQASRAMIENFSAKYVSLHVRKSNRAALHLYSNTLNFQVSEVEPKYYADGEDAYAMKRDLSQMADELRR
As for B2, the binding result in assay [2] is listed as “binds”.

B3: 3xFLAG-tagged mouse Naa11 (p3xFLAG-CMV10-Naa11) (protein, UniProt Q3UX61 1-218)
chain: MNIRNARPDDLMNMQHCNLLCLPENYQMKYYFYHGLSWPQLSYIAEDEDGKIVGYVLAKMEEDPDDVPHGHITSLAVKRSHRRLGLAQKLMDQASRAMIENFGAKYVSLHVRKSNRAALHLYSNTLNFQVSEVEPKYYADGEDAYAMKRDLSQMTDELRRQLVLKKNRYVVLGSEETQGGTLPDAGEACLPKNPTSKDSGSSDSTDVQDSSEDLDSIS
As to B3, the binding result in assay [1] was “binds”.

B4: 3xFLAG-tagged mouse Naa12 (p3xFLAG-CMV10-Naa12) (protein, UniProt Q9CQX6 1-220)
chain: MNIRRARPDDLMNMQHCNLLCLPENYQMKYYFYHGLSWPQLSYIAEDEDGKIVGYVLAKMEEDPDDVPHGHITSLAVKRSHRRLGLAQKLMDQASRAMIENFSAKYVSLHVRKSNRAALHLYSNTLNFQVSEVEPKYYADGEDAYAMKRDLSQMADELRRQLVLKKGRYVVLGSKENQGSTLPGSEEASQQENLAGGDSGSDGKDSTDVQDSLQTLGSAS
As for B4, in assay [1], the binding entry is listed as “binds”.
